# Experimental data reported in the supplement of paper PMC8728848.
# The list shows a part of the results.
# Legend:
# Experiment in all cases: glycan array binding signal (z-score within array); higher = stronger binding
# Conditions in all cases: glycan notation: IUPAC condensed, linker removed
# [1] = target: Gal(b1-3)GlcNAc(b1-2)Man(a1-3)[Gal(b1-3)GlcNAc(b1-2)Man(a1-6)]Man(b1-4)GlcNAc(b1-4)GlcNAc
# In short: (§1)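 Columns mapping to the same glycan were averaged after glycan names were converted to IUPAC-condensed notation. The data come from 3228 arrays in the Consortium for Functional Glycomics database, limited to those with an available protein sequence. Binding is reported as a within-array Z-score averaged across arrays of one protein sequence and across linkers.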
# [2] = target: Gal(b1-3)GlcNAc(b1-2)Man(a1-3)[Gal(b1-3)GlcNAc(b1-2)Man(a1-6)]Man(b1-4)GlcNAc(b1-4)[Fuc(a1-6)]GlcNAc
# In short: as §1
# [3] = target: Gal(b1-3)GlcNAc(b1-2)Man(a1-3)[GlcNAc(b1-4)][Gal(b1-3)GlcNAc(b1-2)Man(a1-6)]Man(b1-4)GlcNAc(b1-4)GlcNAc
# In short: as §1
# [4] = target: Gal(b1-3)GlcNAc(b1-2)[Gal(b1-3)GlcNAc(b1-6)]Man(a1-6)[Gal(b1-3)GlcNAc(b1-2)Man(a1-3)]Man(b1-4)GlcNAc(b1-4)GlcNAc
# In short: as §1
# [5] = target: Gal(b1-3)GlcNAc(b1-3)Gal(b1-3)GlcNAc
# In short: as §1
# [6] = target: Gal(b1-3)GlcNAc(b1-3)Gal(b1-4)Glc
# In short: as §1
# [7] = target: Gal(b1-3)GlcNAc(b1-3)Gal(b1-4)GlcNAc
# In short: as §1
# [8] = target: Gal(b1-3)GlcNAc(b1-3)Gal(b1-4)GlcNAc(b1-2)Man(a1-3)[Gal(b1-3)GlcNAc(b1-3)Gal(b1-4)GlcNAc(b1-2)Man(a1-6)]Man(b1-4)GlcNAc(b1-4)GlcNAc
# In short: as §1
# [9] = target: Gal(b1-3)GlcNAc(b1-3)Gal(b1-4)GlcNAc(b1-2)[Gal(b1-3)GlcNAc(b1-3)Gal(b1-4)GlcNAc(b1-6)]Man(a1-6)[Gal(b1-3)GlcNAc(b1-3)Gal(b1-4)GlcNAc(b1-2)Man(a1-3)]Man(b1-4)GlcNAc(b1-4)[Fuc(a1-6)]GlcNAc
# In short: as §1
# [10] = target: Gal(b1-3)GlcNAc(b1-3)Gal(b1-4)GlcNAc(b1-3)Gal(b1-4)GlcNAc(b1-2)[Gal(b1-3)GlcNAc(b1-3)Gal(b1-4)GlcNAc(b1-3)Gal(b1-4)GlcNAc(b1-6)]Man(a1-6)[Gal(b1-3)GlcNAc(b1-3)Gal(b1-4)GlcNAc(b1-3)Gal(b1-4)GlcNAc(b1-2)Man(a1-3)]Man(b1-4)GlcNAc(b1-4)[Fuc(a1-6)]GlcNAc
# In short: as §1
# [11] = target: Gal(b1-3)GlcNAc(b1-3)Gal(b1-4)GlcNAc(b1-6)[Gal(b1-3)GlcNAc(b1-3)]Gal(b1-4)Glc
# In short: as §1
# [12] = target: Gal(b1-3)GlcNAc(b1-3)Gal(b1-4)[Fuc(a1-3)]GlcNAc
# In short: as §1
# [13] = target: Gal(b1-3)GlcNAc(b1-3)Gal(b1-4)[Fuc(a1-3)]GlcNAc(b1-6)[Gal(b1-3)GlcNAc(b1-3)]Gal(b1-4)Glc
# In short: as §1
# [14] = target: Gal(b1-3)GlcNAc(b1-3)GalNAc
# In short: as §1
# [15] = target: Gal(b1-3)GlcNAc(b1-6)Gal(b1-4)GlcNAc
# In short: as §1
# [16] = target: Gal(b1-3)GlcNAc(b1-6)GalNAc
# In short: as §1
# [17] = target: Gal(b1-3)GlcNAc(b1-6)[Gal(b1-3)]GalNAc
# In short: as §1
# [18] = target: Gal(b1-3)GlcNAc6S
# In short: as §1
# [19] = target: Gal(b1-3)[Fuc(a1-4)]GlcNAc
# In short: as §1
# [20] = target: Gal(b1-3)[Fuc(a1-4)]GlcNAc(b1-2)Man
# In short: as §1
# [21] = target: Gal(b1-3)[Fuc(a1-4)]GlcNAc(b1-2)Man(a1-3)[Gal(b1-3)[Fuc(a1-4)]GlcNAc(b1-2)Man(a1-6)]Man(b1-4)GlcNAc(b1-4)[Fuc(a1-6)]GlcNAc
# In short: as §1
# [22] = target: Gal(b1-3)[Fuc(a1-4)]GlcNAc(b1-3)Gal(b1-3)[Fuc(a1-4)]GlcNAc
# In short: as §1
# [23] = target: Gal(b1-3)[Fuc(a1-4)]GlcNAc(b1-3)Gal(b1-4)[Fuc(a1-3)]GlcNAc
# In short: as §1
# [24] = target: Gal(b1-3)[Fuc(a1-4)]GlcNAc(b1-6)GalNAc
# In short: as §1
# [25] = target: Gal(b1-3)[GlcNAc(b1-6)]GalNAc
# In short: as §1
# [26] = target: Gal(b1-3)[Neu5Ac(a2-6)]GalNAc
# In short: as §1
# [27] = target: Gal(b1-3)[Neu5Ac(a2-6)]GlcNAc(b1-4)Gal(b1-4)Glc
# In short: as §1
# [28] = target: Gal(b1-3)[Neu5Ac(b2-6)]GalNAc
# In short: as §1
# [29] = target: Gal(b1-4)Gal
# In short: as §1
# [30] = target: Gal(b1-4)GalNAc(a1-3)[Fuc(a1-2)]Gal(b1-4)GlcNAc
# In short: as §1
# [31] = target: Gal(b1-4)GalNAc(b1-3)[Fuc(a1-2)]Gal(b1-4)GlcNAc
# In short: as §1
# [32] = target: Gal(b1-4)Glc
# In short: as §1
# [33] = target: Gal(b1-4)Glc6S
# In short: as §1
# [34] = target: Gal(b1-4)GlcNAc
# In short: as §1
# [35] = target: Gal(b1-4)GlcNAc(a1-6)Gal(b1-4)GlcNAc
# In short: as §1
# [36] = target: Gal(b1-4)GlcNAc(b1-2)Man
# In short: as §1
# [37] = target: Gal(b1-4)GlcNAc(b1-2)Man(a1-3)Man(b1-4)GlcNAc(b1-4)GlcNAc
# In short: as §1
binder,measurement,setting,value
"AT3G09350(27) (Arabidopsis thaliana), Q84J81 (protein) MAKDGPNWDGLLKWSLSHADGTRPTRQLSEEDRKWFMEAMQSQTVDVVKRMKEITLVMQTPEQVLVEHGVTPEDIQDLLDELQEHVESIDMANDLHSIGGLVPLLSFLKNSHANIRAKAADVVSTIVQNNPRSQELVMETNALESLLSNFTSDTDIHARTQALGAISSLIRHNKPGVTAFKLANGYAGLRDALASDSVRFQRKALNLLQYLLQEDDSDRSIATGLGFPRVMMHLASSDDAEIREAALRGLLELSREKNDGSSSIDKSDEKLRQLLEERIKGITLMSQEDLETVKEERQLVDLLWSICYNEPSSLREKGLVVLPGEDALPPDVASKLFEPPLRASAANRNATEKKDEPMKLLGP",glycan array binding signal (z-score),[1],-0.342
same,glycan array binding signal (z-score),[2],-0.315
same,glycan array binding signal (z-score),[3],-0.781
same,glycan array binding signal (z-score),[4],0.379
same,glycan array binding signal (z-score),[5],-0.089
same,glycan array binding signal (z-score),[6],-0.507
same,glycan array binding signal (z-score),[7],-0.582
same,glycan array binding signal (z-score),[8],-0.517
same,glycan array binding signal (z-score),[9],0.867
same,glycan array binding signal (z-score),[10],-0.059
same,glycan array binding signal (z-score),[11],-0.181
same,glycan array binding signal (z-score),[12],0.65
same,glycan array binding signal (z-score),[13],-0.222
same,glycan array binding signal (z-score),[14],-0.367
same,glycan array binding signal (z-score),[15],3.05
same,glycan array binding signal (z-score),[16],-0.689
same,glycan array binding signal (z-score),[17],-0.066
same,glycan array binding signal (z-score),[18],0.242
same,glycan array binding signal (z-score),[19],-0.1
same,glycan array binding signal (z-score),[20],-0.052
same,glycan array binding signal (z-score),[21],0.226
same,glycan array binding signal (z-score),[22],0.238
same,glycan array binding signal (z-score),[23],0.484
same,glycan array binding signal (z-score),[24],-0.347
same,glycan array binding signal (z-score),[25],0.004
same,glycan array binding signal (z-score),[26],-0.32
same,glycan array binding signal (z-score),[27],-0.501
same,glycan array binding signal (z-score),[28],-0.235
same,glycan array binding signal (z-score),[29],-0.503
same,glycan array binding signal (z-score),[30],0.515
same,glycan array binding signal (z-score),[31],-0.301
same,glycan array binding signal (z-score),[32],-0.468
same,glycan array binding signal (z-score),[33],0.57
same,glycan array binding signal (z-score),[34],-0.033
same,glycan array binding signal (z-score),[35],-0.028
same,glycan array binding signal (z-score),[36],0.656
same,glycan array binding signal (z-score),[37],-0.336

# Rewritten as tab-separated lines: part of the list above
binder	measurement	setting	value
AT3G09350(27) (Arabidopsis thaliana), Q84J81 (protein) MAKDGPNWDGLLKWSLSHADGTRPTRQLSEEDRKWFMEAMQSQTVDVVKRMKEITLVMQTPEQVLVEHGVTPEDIQDLLDELQEHVESIDMANDLHSIGGLVPLLSFLKNSHANIRAKAADVVSTIVQNNPRSQELVMETNALESLLSNFTSDTDIHARTQALGAISSLIRHNKPGVTAFKLANGYAGLRDALASDSVRFQRKALNLLQYLLQEDDSDRSIATGLGFPRVMMHLASSDDAEIREAALRGLLELSREKNDGSSSIDKSDEKLRQLLEERIKGITLMSQEDLETVKEERQLVDLLWSICYNEPSSLREKGLVVLPGEDALPPDVASKLFEPPLRASAANRNATEKKDEPMKLLGP	glycan array binding signal (z-score)	[23]	0.484
same	glycan array binding signal (z-score)	[24]	-0.347
same	glycan array binding signal (z-score)	[25]	0.004
same	glycan array binding signal (z-score)	[26]	-0.32
same	glycan array binding signal (z-score)	[27]	-0.501
same	glycan array binding signal (z-score)	[28]	-0.235
same	glycan array binding signal (z-score)	[29]	-0.503
same	glycan array binding signal (z-score)	[30]	0.515
